# Percent effect of library compounds

Protein sequences, listed by entry. Tags and fused reporters are not part of them. Residues count along the entry.
UniProt Q4DA54, 1-478: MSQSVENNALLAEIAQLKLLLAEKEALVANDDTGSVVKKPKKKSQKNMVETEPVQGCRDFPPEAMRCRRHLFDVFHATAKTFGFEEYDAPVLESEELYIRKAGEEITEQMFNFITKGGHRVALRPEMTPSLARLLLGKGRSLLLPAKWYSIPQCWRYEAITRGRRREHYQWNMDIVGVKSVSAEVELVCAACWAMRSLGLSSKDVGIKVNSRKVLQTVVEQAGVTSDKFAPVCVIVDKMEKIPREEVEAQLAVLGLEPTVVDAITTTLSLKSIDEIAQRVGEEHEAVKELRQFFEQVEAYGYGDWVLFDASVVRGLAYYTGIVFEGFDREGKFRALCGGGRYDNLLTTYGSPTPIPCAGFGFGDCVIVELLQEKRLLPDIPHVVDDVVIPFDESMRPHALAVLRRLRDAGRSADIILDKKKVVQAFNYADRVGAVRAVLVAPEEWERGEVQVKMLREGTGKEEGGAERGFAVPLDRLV
UniProt A4I591, 1-473: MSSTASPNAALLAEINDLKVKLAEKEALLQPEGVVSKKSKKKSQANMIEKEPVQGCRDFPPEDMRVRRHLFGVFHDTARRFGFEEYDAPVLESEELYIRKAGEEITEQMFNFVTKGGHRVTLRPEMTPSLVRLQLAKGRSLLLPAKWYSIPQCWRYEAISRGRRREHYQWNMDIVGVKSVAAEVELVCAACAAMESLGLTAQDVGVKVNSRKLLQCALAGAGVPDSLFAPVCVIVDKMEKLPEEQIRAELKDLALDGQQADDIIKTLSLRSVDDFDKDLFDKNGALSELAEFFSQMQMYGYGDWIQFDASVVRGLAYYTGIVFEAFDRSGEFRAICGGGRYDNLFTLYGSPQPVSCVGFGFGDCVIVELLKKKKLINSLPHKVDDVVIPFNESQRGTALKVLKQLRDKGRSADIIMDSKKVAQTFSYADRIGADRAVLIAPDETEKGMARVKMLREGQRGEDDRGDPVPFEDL
UniProt Q8IDJ8, 1-583: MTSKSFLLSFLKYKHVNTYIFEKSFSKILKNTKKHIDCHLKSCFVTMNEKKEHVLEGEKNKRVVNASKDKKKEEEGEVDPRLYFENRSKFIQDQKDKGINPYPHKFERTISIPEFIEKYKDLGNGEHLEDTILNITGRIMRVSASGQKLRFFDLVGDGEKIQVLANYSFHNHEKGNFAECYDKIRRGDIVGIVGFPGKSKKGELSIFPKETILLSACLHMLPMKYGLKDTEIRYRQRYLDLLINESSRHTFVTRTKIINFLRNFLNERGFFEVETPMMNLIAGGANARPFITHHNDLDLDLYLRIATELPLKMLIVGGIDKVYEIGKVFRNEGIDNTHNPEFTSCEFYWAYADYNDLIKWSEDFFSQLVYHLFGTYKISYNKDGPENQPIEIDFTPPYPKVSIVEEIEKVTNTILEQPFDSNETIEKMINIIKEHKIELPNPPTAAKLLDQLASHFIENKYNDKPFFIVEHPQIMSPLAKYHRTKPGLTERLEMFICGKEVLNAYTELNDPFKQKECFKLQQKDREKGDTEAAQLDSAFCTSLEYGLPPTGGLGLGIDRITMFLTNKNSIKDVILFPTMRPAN

Values are the deposited “Percent Effect”, in %.
How 0% and 100% were set is not recorded. Most values in the screen are low, and negative values occur.
The compounds are a random part of those screened.

TcHisRS: 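Histidine-tRNA ligase, Trypanosoma cruzi CL Brener (UniProt Q4DA54). Enzyme assay of histidyl-tRNA synthetase; the read-out is not stated. Concentration: 30 µM. Higher reads as stronger inhibition (inferred: compounds with an IC50 in retests scored well above the rest). Size under these conditions: about 69,000 compounds, about 31 of them at 50% or above in at least one test.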
LiHisRS: 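Enzyme assay of histidyl-tRNA synthetase; the read-out is not stated. Target: Histidine-tRNA ligase, Leishmania infantum (UniProt A4I591). Concentration: 30 µM. Higher reads as stronger inhibition (inferred: compounds with an IC50 in retests scored well above the rest). The assay is labelled LdHisRS but filed under L. infantum. Size under these conditions: about 69,000 compounds, about 410 of them at 50% or above in at least one test.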
PfKRS1: 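Lysine-tRNA ligase, Plasmodium falciparum 3D7 (UniProt Q8IDJ8). Enzyme assay of the cytosolic lysyl-tRNA synthetase in 384-well plates, read by luminescence. Concentration: 30 µM. Direction is inferred from only a few compounds that gave an IC50; most scored high, so higher reads as stronger inhibition. Size under these conditions: about 69,000 compounds, about 49 of them at 50% or above in at least one test.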

* O=C(CC1CC1)N1Cc2nccn2CC(Cn2ncccc2=O)C1 (stereo not drawn) | TcHisRS: 1.905%; LiHisRS: -2.778%; PfKRS1: -5.354%
* Cn1nc(C(=O)N2CCCC(n3cncn3)C2)ccc1=O (stereo not drawn) | TcHisRS: 0.8403%; LiHisRS: 3.306%; PfKRS1: -2.545%
* Cc1nc(O)cc(CN2C[C@H](NC(=O)C3CCCC3)[C@@H](C3CC3)C2)n1 | TcHisRS: 3.704%; LiHisRS: 7.843%; PfKRS1: 2.679%
* CC(=O)NCCNC(=O)NCCc1c(C)cc(C)cc1C | TcHisRS: 0%; LiHisRS: 21.92%; PfKRS1: 3.967%
* COc1ccc(CS(=O)(=O)CC(=O)NCc2ccccc2F)cc1F | TcHisRS: 1.087%; LiHisRS: 22.86%; PfKRS1: 4.562%
* CCOCc1nc(N2CCCC2)sc1C(=O)NCc1ccco1 | TcHisRS: 14%; LiHisRS: 46.58%; PfKRS1: 1.226%
* Cc1nnc(N2CC[C@H]3O[C@H](C(=O)NCc4ccccn4)CC[C@H]32)s1 | TcHisRS: 4.132%; LiHisRS: 20%; PfKRS1: 5.726%
* Cc1cc(C(=O)N2CCCC(n3cncn3)C2)nn1C (stereo not drawn) | TcHisRS: 0.8596%; LiHisRS: 10.53%; PfKRS1: 0.1515%
* CNC(=O)c1cnc2n1CCN(C(=O)Cc1ccccn1)C2 | TcHisRS: 4.598%; LiHisRS: 14%; PfKRS1: 6.137%
* Cc1ccc(-c2noc(CC[C@@H]3CCCN4CCCC[C@H]34)n2)nn1 | TcHisRS: 5.759%; LiHisRS: 7.527%; PfKRS1: 5.19%
* N#CC1COCCN1S(=O)(=O)c1ccc2ccccc2c1 (stereo not drawn) | TcHisRS: 1.724%; LiHisRS: 0.8929%; PfKRS1: 6.301%
* COc1cccc(C(=O)N2CCOCC2CN(C)C)c1OC (stereo not drawn) | TcHisRS: 2.041%; LiHisRS: 3.306%; PfKRS1: 8.675%
* Cc1cc(C(=O)NCC(C)C)nn1C | TcHisRS: 0%; LiHisRS: 12.5%; PfKRS1: 4.574%
* CC(C)N(C)CC(=O)Nc1nccn1Cc1ccccc1Cl | TcHisRS: 4.972%; LiHisRS: 21.69%; PfKRS1: 5.99%
* Cc1n[nH]c(CN2CCN(CC3CC3)[C@@H]3CS(=O)(=O)C[C@@H]32)n1 | TcHisRS: 7.229%; LiHisRS: 18%; PfKRS1: -1.188%
* Cc1ncc2c(n1)CN(CCOCC(F)(F)F)CC2 | TcHisRS: 24.14%; LiHisRS: 17.74%; PfKRS1: 11.61%
* Fc1ccc(C2(CNCC(F)F)CCOC2)cc1 (stereo not drawn) | TcHisRS: 3.704%; LiHisRS: -1.333%; PfKRS1: 2.052%
* Nc1ncc(-c2ccc(F)cc2)c(C2CCCNC2)n1 (stereo not drawn) | TcHisRS: 3.714%; LiHisRS: 12.08%; PfKRS1: -1.52%
* CC(CNC(=O)c1cc(N2CCNC2=O)ccc1F)c1ccccc1 (stereo not drawn) | TcHisRS: 2.041%; LiHisRS: 9.917%; PfKRS1: -0.2199%
* Cc1ccc(-c2ccnc(N[C@H]3COC[C@@H]3N3CCCC3)n2)c(C)n1 | TcHisRS: 2.899%; LiHisRS: 17.5%; PfKRS1: 3.06%
* Cc1cccc(C)c1OCC(=O)Nc1cccn(C)c1=O | TcHisRS: 2.941%; LiHisRS: 21.01%; PfKRS1: 3.027%
* C1CC1c1nsc(N2CCN(C3CC3)CC2)n1 | TcHisRS: 0%; LiHisRS: 25%; PfKRS1: -1.24%
* O=C1CN(Cc2cc(O)c3cccc(F)c3n2)CCN1C1CCCC1 | TcHisRS: 5.102%; LiHisRS: 25.71%; PfKRS1: -6.103%
* CCN(Cc1nc(COC)no1)Cc1ccccc1OCC(=O)O | TcHisRS: 8.671%; LiHisRS: 8.511%; PfKRS1: 0.9476%
* COCCn1cc(CCC(=O)Nc2c(C)nn(C)c2C)c2ccccc21 | TcHisRS: 5.208%; LiHisRS: 18.75%; PfKRS1: -2.51%
* CC(C)(C)NC(=O)[C@@H]1CNC[C@]12Cc1ccccc1C(=O)N2 | TcHisRS: -1.515%; LiHisRS: 4.225%; PfKRS1: -0.7642%
* Cc1ccc(NC2CCN(C(=O)c3ccc(C#N)cc3)CC2)nn1 | TcHisRS: 4.298%; LiHisRS: 17.54%; PfKRS1: 0.9367%
* CCN1C(=O)C(c2ccccc2)CC12CCN(S(C)(=O)=O)CC2 (stereo not drawn) | TcHisRS: 0%; LiHisRS: 3.883%; PfKRS1: 3.487%
* Cc1ccccc1CN1CCC(c2nn(CCN)c3nccnc23)C1 (stereo not drawn) | TcHisRS: 33.71%; LiHisRS: 18%; PfKRS1: -0.007606%
* CC1CCN(CCNC(=O)C2CCN(C(=O)C3CC3)CC2)CC1 | TcHisRS: 6.897%; LiHisRS: 28.77%; PfKRS1: 3.374%
* Cn1cccc1C(=O)N1CCn2cc(CN3CCCC3)nc2C1 | TcHisRS: 2.941%; LiHisRS: 8%; PfKRS1: 1.635%
* CCC(C)CNc1ccc2oc(COC)nc2c1 (stereo not drawn) | TcHisRS: 2.674%; LiHisRS: 94.23%; PfKRS1: 20.51%
* CCNc1ncc(C(=O)NCc2ccc3nsnc3c2)cn1 | TcHisRS: -1.212%; LiHisRS: 5.195%; PfKRS1: -3.007%
* CSc1ccc(S(=O)(=O)NC2CNC(=O)C2)cc1 (stereo not drawn) | TcHisRS: 0%; LiHisRS: -3.03%; PfKRS1: -1.291%

Some entries from above, unchanged:

With Cc1cc(C(=O)NCC(C)C)nn1C the screen gave TcHisRS: 0%; LiHisRS: 12.5%; PfKRS1: 4.574%.
With Cn1cccc1C(=O)N1CCn2cc(CN3CCCC3)nc2C1 the screen gave TcHisRS: 2.941%; LiHisRS: 8%; PfKRS1: 1.635%.
With Cc1ccccc1CN1CCC(c2nn(CCN)c3nccnc23)C1 (stereo not drawn) the screen gave TcHisRS: 33.71%; LiHisRS: 18%; PfKRS1: -0.007606%.

Data taken from ChEMBL document CHEMBL3988442, “University of Dundee, Small-Polar-MMV Screening Library” (2021).